No constants are given. Whether binding was seen depends on the method and setting. In cells and extracts the contact can be indirect. For part of these data: Binding calls can cover weak binding; strength is not graded here.
What was measured:
[1] = target: FLAG-USP22 N-terminal truncated mutant (human); experiment: co-IP; HEK293 cells transfected with expression plasmids of ZEB1 and USP22 (full length or truncated mutants) or vector for 24 h; whole cell lysates
[2] = target: GST-USP22 C-terminal deletion mutant (human); experiment: pull-down; GST pull-down: GST-USP22 deletion mutants with ZEB1 synthesized by in vitro transcription and translation kit; bound proteins analysed by western blot; only the target purified
[3] = target: GST-USP22 N-terminal deletion mutant (human); experiment: as above

binding [1] | binding [2] | binding [3] | Binder
binds | – | – | ZEB1, expressed from plasmid in HEK293 cells (protein, UniProt P37275 1-1124) MADGPRCKRRKQANPRRNNVTNYNTVVETNSDSDDEDKLHIVEEESVTDAADCEGVPEDDLPTDQTVLPGRSSEREGNAKNCWEDDRKEGQEILGPEAQADEAGCTVKDDECESDAENEQNHDPNVEEFLQQQDTAVIFPEAPEEDQRQGTPEASGHDENGTPDAFSQLLTCPYCDRGYKRFTSLKEHIKYRHEKNEDNFSCSLCSYTFAYRTQLERHMTSHKSGRDQRHVTQSGCNRKFKCTECGKAFKYKHHLKEHLRIHSGEKPYECPNCKKRFSHSGSYSSHISSKKCISLIPVNGRPRTGLKTSQCSSPSLSASPGSPTRPQIRQKIENKPLQEQLSVNQIKTEPVDYEFKPIVVASGINCSTPLQNGVFTGGGPLQATSSPQGMVQAVVLPTVGLVSPISINLSDIQNVLKVAVDGNVIRQVLENNQANLASKEQETINASPIQQGGHSVISAISLPLVDQDGTTKIIINYSLEQPSQLQVVPQNLKKENPVATNSCKSEKLPEDLTVKSEKDKSFEGGVNDSTCLLCDDCPGDINALPELKHYDLKQPTQPPPLPAAEAEKPESSVSSATGDGNLSPSQPPLKNLLSLLKAYYALNAQPSAEELSKIADSVNLPLDVVKKWFEKMQAGQISVQSSEPSSPEPGKVNIPAKNNDQPQSANANEPQDSTVNLQSPLKMTNSPVLPVGSTTNGSRSSTPSPSPLNLSSSRNTQGYLYTAEGAQEEPQVEPLDLSLPKQQGELLERSTITSVYQNSVYSVQEEPLNLSCAKKEPQKDSCVTDSEPVVNVIPPSANPINIAIPTVTAQLPTIVAIADQNSVPCLRALAANKQTILIPQVAYTYSTTVSPAVQEPPLKVIQPNGNQDERQDTSSEGVSNVEDQNDSDSTPPKKKMRKTENGMYACDLCDKIFQKSSSLLRHKYEHTGKRPHECGICKKAFKHKHHLIEHMRLHSGEKPYQCDKCGKRFSHSGSYSQHMNHRYSYCKREAEERDSTEQEEAGPEILSNEHVGARASPSQGDSDERESLTREEDEDSEKEEEEEDKEMEELQEEKECEKPQGDEEEEEEEEEVEEEEVEEAENEGEEAKTEGLMKDDRAESQASSLGQKVGESSEQVSEEKTNEA
– | no binding | binds | ZEB1, in vitro translated (protein, UniProt P37275 1-1124) MADGPRCKRRKQANPRRNNVTNYNTVVETNSDSDDEDKLHIVEEESVTDAADCEGVPEDDLPTDQTVLPGRSSEREGNAKNCWEDDRKEGQEILGPEAQADEAGCTVKDDECESDAENEQNHDPNVEEFLQQQDTAVIFPEAPEEDQRQGTPEASGHDENGTPDAFSQLLTCPYCDRGYKRFTSLKEHIKYRHEKNEDNFSCSLCSYTFAYRTQLERHMTSHKSGRDQRHVTQSGCNRKFKCTECGKAFKYKHHLKEHLRIHSGEKPYECPNCKKRFSHSGSYSSHISSKKCISLIPVNGRPRTGLKTSQCSSPSLSASPGSPTRPQIRQKIENKPLQEQLSVNQIKTEPVDYEFKPIVVASGINCSTPLQNGVFTGGGPLQATSSPQGMVQAVVLPTVGLVSPISINLSDIQNVLKVAVDGNVIRQVLENNQANLASKEQETINASPIQQGGHSVISAISLPLVDQDGTTKIIINYSLEQPSQLQVVPQNLKKENPVATNSCKSEKLPEDLTVKSEKDKSFEGGVNDSTCLLCDDCPGDINALPELKHYDLKQPTQPPPLPAAEAEKPESSVSSATGDGNLSPSQPPLKNLLSLLKAYYALNAQPSAEELSKIADSVNLPLDVVKKWFEKMQAGQISVQSSEPSSPEPGKVNIPAKNNDQPQSANANEPQDSTVNLQSPLKMTNSPVLPVGSTTNGSRSSTPSPSPLNLSSSRNTQGYLYTAEGAQEEPQVEPLDLSLPKQQGELLERSTITSVYQNSVYSVQEEPLNLSCAKKEPQKDSCVTDSEPVVNVIPPSANPINIAIPTVTAQLPTIVAIADQNSVPCLRALAANKQTILIPQVAYTYSTTVSPAVQEPPLKVIQPNGNQDERQDTSSEGVSNVEDQNDSDSTPPKKKMRKTENGMYACDLCDKIFQKSSSLLRHKYEHTGKRPHECGICKKAFKHKHHLIEHMRLHSGEKPYQCDKCGKRFSHSGSYSQHMNHRYSYCKREAEERDSTEQEEAGPEILSNEHVGARASPSQGDSDERESLTREEDEDSEKEEEEEDKEMEELQEEKECEKPQGDEEEEEEEEEVEEEEVEEAENEGEEAKTEGLMKDDRAESQASSLGQKVGESSEQVSEEKTNEA

Source: PMC10008583
